Results are given in words; binding and its absence hold for the method and conditions named. Binding seen in cells or lysates may run through a third protein. Binding can be weak; no strength is given.
Target: T1, NRF2 (human (endogenous in LN229 and U251)) (UniProt Q16236)
T1 sequence: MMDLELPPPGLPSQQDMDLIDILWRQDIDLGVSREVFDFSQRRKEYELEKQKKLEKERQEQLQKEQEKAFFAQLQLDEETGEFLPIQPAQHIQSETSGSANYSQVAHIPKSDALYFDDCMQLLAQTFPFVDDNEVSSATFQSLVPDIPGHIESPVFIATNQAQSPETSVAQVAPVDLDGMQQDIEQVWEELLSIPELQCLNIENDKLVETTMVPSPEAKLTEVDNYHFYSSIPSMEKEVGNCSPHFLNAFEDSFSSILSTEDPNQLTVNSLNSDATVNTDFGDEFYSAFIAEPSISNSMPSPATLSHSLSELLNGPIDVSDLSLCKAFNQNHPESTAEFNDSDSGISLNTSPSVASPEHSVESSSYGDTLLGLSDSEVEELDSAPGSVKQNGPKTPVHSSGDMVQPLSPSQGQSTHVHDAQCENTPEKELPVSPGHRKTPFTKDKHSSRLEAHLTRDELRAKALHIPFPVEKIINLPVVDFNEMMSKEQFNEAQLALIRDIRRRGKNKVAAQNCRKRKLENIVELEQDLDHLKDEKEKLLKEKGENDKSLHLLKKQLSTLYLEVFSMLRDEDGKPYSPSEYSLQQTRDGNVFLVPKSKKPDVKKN
Assay: co-IP; endogenous proteins in LN229 and U251 cell lysates (IP buffer with protease inhibitors); primary antibody at 4°C for 12 hours, protein A/G beads for 2 hours, four washes with ice-cold PBS, Western blot

By UniProt entry, the sequences of proteins in these tests, tags left out. Where a name states a change or a piece, a line headed by the entry shows the natural chain unless it says otherwise.
UniProt Q99988: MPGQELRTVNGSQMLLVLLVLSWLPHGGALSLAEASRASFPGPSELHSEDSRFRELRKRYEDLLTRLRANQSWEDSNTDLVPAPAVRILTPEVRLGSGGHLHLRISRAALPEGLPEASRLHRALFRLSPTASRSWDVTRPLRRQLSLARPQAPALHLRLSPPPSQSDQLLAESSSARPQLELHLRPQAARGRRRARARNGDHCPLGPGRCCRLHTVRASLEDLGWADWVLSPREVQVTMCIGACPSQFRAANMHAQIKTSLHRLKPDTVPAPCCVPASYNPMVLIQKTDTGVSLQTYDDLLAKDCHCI

With “growth differentiation factor 15 (GDF15) (from UniProt Q99988)” the binding was “binds”.
